Consider one molecule from paper PMC3602193.

By UniProt entry, the sequences of proteins in these tests, tags left out.
UniProt Q8WUM4: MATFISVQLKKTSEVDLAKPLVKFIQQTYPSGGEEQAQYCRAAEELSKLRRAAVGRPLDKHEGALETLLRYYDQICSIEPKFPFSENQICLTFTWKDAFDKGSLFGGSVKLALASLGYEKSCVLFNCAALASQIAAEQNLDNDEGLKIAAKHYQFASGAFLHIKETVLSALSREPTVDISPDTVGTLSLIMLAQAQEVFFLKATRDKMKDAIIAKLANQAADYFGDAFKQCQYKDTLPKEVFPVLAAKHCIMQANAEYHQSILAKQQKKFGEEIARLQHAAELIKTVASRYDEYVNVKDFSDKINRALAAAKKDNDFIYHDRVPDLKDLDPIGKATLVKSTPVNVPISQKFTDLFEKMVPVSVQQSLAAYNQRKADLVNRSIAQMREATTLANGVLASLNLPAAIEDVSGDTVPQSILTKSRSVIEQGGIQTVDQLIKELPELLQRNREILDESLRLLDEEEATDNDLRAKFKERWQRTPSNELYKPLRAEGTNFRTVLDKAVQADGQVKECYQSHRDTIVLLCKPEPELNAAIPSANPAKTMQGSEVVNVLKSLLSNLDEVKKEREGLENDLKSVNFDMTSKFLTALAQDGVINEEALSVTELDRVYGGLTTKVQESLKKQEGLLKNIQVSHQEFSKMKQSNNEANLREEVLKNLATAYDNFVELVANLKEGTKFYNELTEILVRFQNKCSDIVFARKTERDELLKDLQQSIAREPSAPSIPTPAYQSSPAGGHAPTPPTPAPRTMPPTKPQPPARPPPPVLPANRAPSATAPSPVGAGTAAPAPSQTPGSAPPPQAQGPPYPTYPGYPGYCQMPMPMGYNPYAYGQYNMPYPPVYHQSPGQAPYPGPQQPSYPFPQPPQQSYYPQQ

These are yes or no findings as the source states them, for the method shown. In cells and extracts the contact can be indirect. Some binding calls cover weakened binding; strength is not graded here. Sequences can lack the tags named with a protein.

The target in experiment [1] is HA-Alix, full-length human Alix with N-terminal HA tag (human) (UniProt Q8WUM4). The experiment is described as follows: co-IP; 293 T cells co-transfected with HA-tagged Alix and either Myc-tagged C or Flag-tagged Chmp4b; lysates 48 h later; anti-HA immunoprecipitation; Western blot.
Experiment [2] shares this target. Briefly: co-IP; 293 T cells co-transfected with Myc-tagged C, Flag-tagged Chmp4b and HA-tagged Alix all together; lysates 48 h later; anti-HA immunoprecipitation; Western blot. For orientation: A western blot detects proteins with antibodies after separation by electrophoresis.

B1: Flag-Chmp4b, human Chmp4b with N-terminal Flag tag (protein, UniProt Q9H444 1-224)
chain: MSVFGKLFGAGGGKAGKGGPTPQEAIQRLRDTEEMLSKKQEFLEKKIEQELTAAKKHGTKNKRAALQALKRKKRYEKQLAQIDGTLSTIEFQREALENANTNTEVLKNMGYAAKAMKAAHDNMDIDKVDELMQDIADQQELAEEISTAISKPVGFGEEFDEDELMAELEELEQEELDKNLLEISGPETVPLPNVPSIALPSKPAKKKEEEDDDMKELENWAGSM
B1: the binding result in experiment [1] and in experiment [2] was “binds” in each case.
